Values quoted from earlier work as cited in patent US20140121178A1, “METHOD AND IMPROVED PHARMACEUTICAL COMPOSITION FOR IMPROVING THE ABSORPTION OF AN ESTER PRODRUG” (ACENDA PHARMA INC., priority 2011, published 2014).
Structures can show the parent of a compound that is named as a salt. Some results were stated once for a whole list of compounds, not compound by compound.

Settings: cited from earlier work

SMILES	amount that may be used in man without exerting any toxicity
CC(=O)OCC(COC(C)=O)OC(C)=O [triacetin]	up to 10 mg/Kg body weight
CCOC(=O)CC(O)(CC(=O)OCC)C(=O)OCC [triethyl citrate]	up to 10 mg/Kg body weight
